These are yes or no findings as the source states them, for the method shown. In cells and extracts the contact can be indirect. Some binding calls cover weakened binding; strength is not graded here.
Experiments:
[1] = target: Recombinant GST labeled YAP1 protein (UniProt P46937); experiment: pull-down; GST-YAP1 or GST alone on glutathione beads (4 hours), then incubated for 4 hours with lysates of KYSE510 cells; Western blot; only the target purified
[2] = target: Yes-associated protein 1 (YAP1) (human (endogenous in KYSE510)) (UniProt P46937); experiment: co-IP; endogenous proteins of KYSE510 cells; lysis in RIPA buffer (10 mM Tris pH 7.4, 150 mM NaCl, 1% Triton X-100, 0.1% sodium deoxycholate, 0.1% SDS, 5 mM EDTA); primary antibody, protein A-agarose beads; Western blot
[3] = target: Yes-associated protein 1 (YAP1) (human (endogenous in KYSE510)) (UniProt P46937); experiment: co-IP; KYSE510 cells transfected with tGFP-CHRNA3; RIPA lysate, primary antibody, protein A-agarose beads; Western blot
[4] = target: Yes-associated protein 1 (YAP1) (human (endogenous in KYSE510)) (UniProt P46937); experiment: co-IP; endogenous proteins of KYSE510 cells; lysis in RIPA buffer (10 mM Tris pH 7.4, 150 mM NaCl, 1% Triton X-100, 0.1% sodium deoxycholate, 0.1% SDS, 5 mM EDTA); primary antibody, protein A-agarose beads; Western blot; remark: listed apart in the source

Amino acid sequences for entries named in this document (tags omitted). Residues count along the entry.
UniProt P46937: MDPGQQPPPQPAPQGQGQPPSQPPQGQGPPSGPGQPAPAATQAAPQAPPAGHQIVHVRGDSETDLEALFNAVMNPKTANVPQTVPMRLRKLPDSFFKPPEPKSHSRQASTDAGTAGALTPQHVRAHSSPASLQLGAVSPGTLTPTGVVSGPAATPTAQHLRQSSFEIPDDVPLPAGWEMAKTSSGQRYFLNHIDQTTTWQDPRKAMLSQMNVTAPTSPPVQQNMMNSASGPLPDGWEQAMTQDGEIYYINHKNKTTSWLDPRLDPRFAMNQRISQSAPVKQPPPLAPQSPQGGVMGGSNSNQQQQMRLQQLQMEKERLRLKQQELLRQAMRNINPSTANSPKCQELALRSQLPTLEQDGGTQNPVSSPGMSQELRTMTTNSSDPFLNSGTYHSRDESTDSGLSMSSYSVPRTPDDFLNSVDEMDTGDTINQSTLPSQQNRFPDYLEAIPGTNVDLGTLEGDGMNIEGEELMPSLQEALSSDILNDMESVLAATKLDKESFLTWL
UniProt P32297, residues 32-505: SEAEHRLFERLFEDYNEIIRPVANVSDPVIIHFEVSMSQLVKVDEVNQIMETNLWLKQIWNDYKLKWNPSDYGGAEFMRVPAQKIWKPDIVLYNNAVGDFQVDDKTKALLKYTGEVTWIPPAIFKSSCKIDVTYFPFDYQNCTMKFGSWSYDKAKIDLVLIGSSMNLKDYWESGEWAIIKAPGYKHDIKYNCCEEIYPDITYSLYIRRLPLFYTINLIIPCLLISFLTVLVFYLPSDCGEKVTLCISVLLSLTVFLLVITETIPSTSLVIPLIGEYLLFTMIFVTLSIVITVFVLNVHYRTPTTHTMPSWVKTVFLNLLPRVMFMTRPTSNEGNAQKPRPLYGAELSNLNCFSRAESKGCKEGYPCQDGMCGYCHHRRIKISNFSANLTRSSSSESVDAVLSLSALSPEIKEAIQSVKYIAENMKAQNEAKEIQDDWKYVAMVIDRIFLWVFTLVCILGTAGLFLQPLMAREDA
UniProt P30532, residues 23-468: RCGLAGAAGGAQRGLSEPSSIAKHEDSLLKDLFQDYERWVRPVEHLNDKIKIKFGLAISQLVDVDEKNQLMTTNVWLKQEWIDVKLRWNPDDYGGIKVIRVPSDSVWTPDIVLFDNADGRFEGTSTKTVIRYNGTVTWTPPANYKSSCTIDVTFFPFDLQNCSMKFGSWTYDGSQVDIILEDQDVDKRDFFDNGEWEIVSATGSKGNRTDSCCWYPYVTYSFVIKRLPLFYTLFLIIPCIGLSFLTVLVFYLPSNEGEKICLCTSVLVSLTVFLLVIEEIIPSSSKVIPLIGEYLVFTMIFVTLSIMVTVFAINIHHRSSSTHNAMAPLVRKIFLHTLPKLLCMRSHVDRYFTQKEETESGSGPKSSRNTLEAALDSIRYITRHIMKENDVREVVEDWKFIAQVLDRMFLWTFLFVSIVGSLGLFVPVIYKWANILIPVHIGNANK
UniProt P30926, residues 22-498: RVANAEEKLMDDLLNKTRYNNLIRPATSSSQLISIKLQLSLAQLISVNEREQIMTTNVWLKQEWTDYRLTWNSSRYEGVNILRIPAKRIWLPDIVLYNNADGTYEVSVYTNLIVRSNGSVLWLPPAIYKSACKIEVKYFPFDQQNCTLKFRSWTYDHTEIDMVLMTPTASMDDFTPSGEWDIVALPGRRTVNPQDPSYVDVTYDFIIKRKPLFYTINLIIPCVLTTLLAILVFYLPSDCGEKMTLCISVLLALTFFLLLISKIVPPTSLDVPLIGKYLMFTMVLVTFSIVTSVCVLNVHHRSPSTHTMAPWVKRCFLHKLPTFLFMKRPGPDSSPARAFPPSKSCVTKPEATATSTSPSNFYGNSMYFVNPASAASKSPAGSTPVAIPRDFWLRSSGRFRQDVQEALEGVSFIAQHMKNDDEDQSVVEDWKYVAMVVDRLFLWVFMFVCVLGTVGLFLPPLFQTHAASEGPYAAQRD

binding [2]	Molecule	other results
binds	CHRNA3 (neuronal acetylcholine receptor subunit alpha-3) (from UniProt P32297 32-505)	binding [1]: binds
binds	CHRNA5 (neuronal acetylcholine receptor subunit alpha-5) (from UniProt P30532 23-468)	–
binds	CHRNB4 (from UniProt P30926 22-498) (receptor)	–
–	tGFP-labeled CHRNA3 (from UniProt P32297 32-505) (receptor)	binding [3]: binds
–	p63 (protein, UniProt Q9H3D4 1-680) MNFETSRCATLQYCPDPYIQRFVETPAHFSWKESYYRSTMSQSTQTNEFLSPEVFQHIWDFLEQPICSVQPIDLNFVDEPSEDGATNKIEISMDCIRMQDSDLSDPMWPQYTNLGLLNSMDQQIQNGSSSTSPYNTDHAQNSVTAPSPYAQPSSTFDALSPSPAIPSNTDYPGPHSFDVSFQQSSTAKSATWTYSTELKKLYCQIAKTCPIQIKVMTPPPQGAVIRAMPVYKKAEHVTEVVKRCPNHELSREFNEGQIAPPSHLIRVEGNSHAQYVEDPITGRQSVLVPYEPPQVGTEFTTVLYNFMCNSSCVGGMNRRPILIIVTLETRDGQVLGRRCFEARICACPGRDRKADEDSIRKQQVSDSTKNGDGTKRPFRQNTHGIQMTSIKKRRSPDDELLYLPVRGRETYEMLLKIKESLELMQYLPQHTIETYRQQQQQQHQHLLQKQTSIQSPSSYGNSSPPLNKMNSMNKLPSVSQLINPQQRNALTPTTIPDGMGANIPMMGTHMPMAGDMNGLSPTQALPPPLSMPSTSHCTPPPPYPTDCSIVSFLARLGCSSCLDYFTTQGLTTIYQIEHYSMDDLASLKIPEQFRHAIWKGILDHRQLHEFSSPSHLLRTPSSASTVSVGSSETRGERVIDAVRFTLRQTISFPPRDEWNDFNFDMDARRNKQQRIKEEGE	binding [4]: binds

From article PMC3951250
